# The supplement of paper PMC8728848
# This is one part of the list.
# B1: Protein L(B1-B4) (Finegoldia magna), Q51912 (protein)
# chain: KEETPETPETDSEEEVTIKANLIFANGSTQTAEFKGTFEKATSEAYAYADTLKKDNGEYTVDVADKGYTLNIKFAGKEKTPEEPKEEVTIKANLIYADGKTQTAEFKGTFEEATAEAYRYADALKKDNGEYTVDVADKGYTLNIKFAGKEKTPEEPKEEVTIKANLIYADGKTQTAEFKGTFEEATAEAYRYADLLAKENGKYTVDVADKGYTLNIKFAGKEKTPEEPKEEVTIKANLIYADGKTQTAEFKGTFAEATAEAYRYADLLAKENGKYTADLEDGGYTINIRFAG
# Biological target: Neu5Gc(b2-6)Gal(b1-4)GlcNAc
# Test: glycan array binding signal (z-score within array); higher = stronger binding
# Details: glycan notation: IUPAC condensed, linker removed
# Procedure, shortened: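 Negative Z-scores can be read as non-binding. The Z-score is calculated within each array and then averaged across arrays of one protein sequence at different concentrations or buffers and across linkers. Arrays, 3228 in all, were curated from the Consortium for Functional Glycomics database and kept only where the protein sequence was available.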
binder,measurement,value
B1,glycan array binding signal (z-score),-0.305
